Assay [1] deals with T1, N-terminal FLAG-tagged viperin (wild type) (human) (UniProt Q8WXG1).
T1 sequence: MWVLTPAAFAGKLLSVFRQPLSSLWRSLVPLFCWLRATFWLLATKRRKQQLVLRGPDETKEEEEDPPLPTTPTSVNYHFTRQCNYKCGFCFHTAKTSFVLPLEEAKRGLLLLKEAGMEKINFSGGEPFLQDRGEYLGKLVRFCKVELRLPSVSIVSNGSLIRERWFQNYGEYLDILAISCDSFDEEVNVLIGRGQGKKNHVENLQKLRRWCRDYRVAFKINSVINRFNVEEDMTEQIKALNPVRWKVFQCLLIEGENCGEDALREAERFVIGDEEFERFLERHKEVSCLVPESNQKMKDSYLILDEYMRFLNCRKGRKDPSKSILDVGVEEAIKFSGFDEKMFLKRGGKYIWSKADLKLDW
The experiment in a line: affinity purification with mass spectrometry.

Protein sequences, listed by entry. Tags and fused reporters are not part of them.
UniProt Q92538: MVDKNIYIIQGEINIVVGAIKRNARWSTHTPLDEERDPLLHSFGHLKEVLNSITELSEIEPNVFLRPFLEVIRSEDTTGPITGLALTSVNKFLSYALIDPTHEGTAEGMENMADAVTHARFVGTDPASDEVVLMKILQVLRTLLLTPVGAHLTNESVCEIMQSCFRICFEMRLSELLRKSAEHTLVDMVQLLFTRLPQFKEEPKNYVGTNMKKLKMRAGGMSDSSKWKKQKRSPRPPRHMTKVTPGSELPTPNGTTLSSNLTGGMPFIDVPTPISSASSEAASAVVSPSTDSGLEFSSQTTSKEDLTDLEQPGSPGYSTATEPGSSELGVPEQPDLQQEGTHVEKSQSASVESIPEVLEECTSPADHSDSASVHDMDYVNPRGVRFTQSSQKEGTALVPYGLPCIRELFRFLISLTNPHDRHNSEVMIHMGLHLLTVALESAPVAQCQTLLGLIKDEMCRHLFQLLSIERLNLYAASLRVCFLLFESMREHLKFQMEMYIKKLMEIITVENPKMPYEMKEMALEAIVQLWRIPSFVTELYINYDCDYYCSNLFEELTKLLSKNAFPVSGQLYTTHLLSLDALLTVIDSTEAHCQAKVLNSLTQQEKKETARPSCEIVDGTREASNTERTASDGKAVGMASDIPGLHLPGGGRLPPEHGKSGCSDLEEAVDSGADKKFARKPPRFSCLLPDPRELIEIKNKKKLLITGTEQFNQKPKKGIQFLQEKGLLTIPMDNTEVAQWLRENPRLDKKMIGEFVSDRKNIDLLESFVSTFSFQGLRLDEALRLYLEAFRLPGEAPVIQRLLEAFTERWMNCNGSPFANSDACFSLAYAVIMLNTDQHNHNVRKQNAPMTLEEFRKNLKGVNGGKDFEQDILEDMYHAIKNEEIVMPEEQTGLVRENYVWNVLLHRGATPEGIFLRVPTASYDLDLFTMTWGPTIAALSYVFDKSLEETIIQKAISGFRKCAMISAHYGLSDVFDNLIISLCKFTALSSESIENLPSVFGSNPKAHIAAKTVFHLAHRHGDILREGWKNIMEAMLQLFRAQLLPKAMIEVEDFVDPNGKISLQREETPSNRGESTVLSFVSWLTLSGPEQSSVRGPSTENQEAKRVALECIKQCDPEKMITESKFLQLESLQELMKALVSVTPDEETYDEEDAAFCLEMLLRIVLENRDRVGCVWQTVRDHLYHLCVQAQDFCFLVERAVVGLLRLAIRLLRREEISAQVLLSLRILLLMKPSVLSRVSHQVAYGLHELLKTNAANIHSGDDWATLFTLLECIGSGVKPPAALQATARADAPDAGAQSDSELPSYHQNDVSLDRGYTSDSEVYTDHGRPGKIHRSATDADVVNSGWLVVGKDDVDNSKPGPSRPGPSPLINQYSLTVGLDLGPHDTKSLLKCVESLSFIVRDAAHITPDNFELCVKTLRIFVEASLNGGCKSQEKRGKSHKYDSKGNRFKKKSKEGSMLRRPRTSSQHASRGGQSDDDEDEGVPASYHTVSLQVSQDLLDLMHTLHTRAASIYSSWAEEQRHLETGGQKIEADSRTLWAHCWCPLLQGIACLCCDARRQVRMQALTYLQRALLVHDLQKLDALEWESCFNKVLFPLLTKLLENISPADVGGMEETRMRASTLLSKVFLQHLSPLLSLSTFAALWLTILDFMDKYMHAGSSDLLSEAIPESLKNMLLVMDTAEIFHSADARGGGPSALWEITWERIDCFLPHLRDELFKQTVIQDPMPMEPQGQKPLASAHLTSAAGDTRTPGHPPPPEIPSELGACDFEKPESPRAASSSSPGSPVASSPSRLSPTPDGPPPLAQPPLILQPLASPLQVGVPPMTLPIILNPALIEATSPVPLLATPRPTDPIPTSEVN

For assay [2], the target named is T1, N-terminal FLAG-tagged viperin (wild type) (human). As to the kind of experiment: affinity purification with mass spectrom.

These are yes or no findings as the source states them, for the method shown. Binding seen in cells or lysates may run through a third protein. Here binding means that the protein was enriched with, or labelled near, the bait; the list need not be complete. Sequences can lack the tags named with a protein.

For the molecule “Golgi brefeldin A-resistant guanine nucleotide exchange factor 1 (GBF1), endogenous in 293 FLP-IN T-Rex cells (from UniProt Q92538 1-1860)”, in assay [1], the binding entry is reported as “binds”.

B1: ADP-ribosylation factor-like protein 1 (protein, UniProt P40616 1-181)
chain: MGGFFSSIFSSLFGTREMRILILGLDGAGKTTILYRLQVGEVVTTIPTIGFNVETVTYKNLKFQVWDLGGQTSIRPYWRCYYSNTDAVIYVVDSCDRDRIGISKSELVAMLEEEELRKAILVVFANKQDMEQAMTSSEMANSLGLPALKDRKWQIFKTSATKGTGLDEAMEWLVETLKSRQ
Regarding B1, the binding entry in assay [2] is “binds”.

B2: RCN2 (ERC-55; ER Ca2+ binding protein, 55 kDa) (protein, UniProt Q14257 23-317)
chain: GKAEELHYPLGERRSDYDREALLGVQEDVDEYVKLGHEEQQKRLQAIIKKIDLDSDGFLTESELSSWIQMSFKHYAMQEAKQQFVEYDKNSDDTVTWDEYNIQMYDRVIDFDENTALDDAEEESFRKLHLKDKKRFEKANQDSGPGLSLEEFIAFEHPEEVDYMTEFVIQEALEEHDKNGDGFVSLEEFLGDYRWDPTANEDPEWILVEKDRFVNDYDKDNDGRLDPQELLPWVVPNNQGIAQEEALHLIDEMDLNGDKKLSEEEILENPDLFLTSEATDYGRQLHDDYFYHDEL
For the molecule B2, in assay [2], the binding result was “binds”.

The record behind these values is PMC5730767.
